Source: patent publication EP1743642A1 (priority 2005, dated 2007)
At least one compound was matched to its structure with a doubt left.

Test: In-vivo testing for antiobesic activity
Conditions: rats

For `O=C(NN1CCCCC1)C1=NN(c2ccc(Cl)cc2Cl)C(c2ccc(Cl)cc2)C1` (stereo not drawn) [Example 1, N-piperidinyl-5-(4-chlorophenyl)-1-(2,4-dichlorophenyl)-4,5-dihydro-1H-pyrazole-3-carboxamide], the “body weight effect after the treatment is ended” value (after 14 days of 10 mg/kg intraperitoneally, Figure 1) was “also observed after the treatment is ended”, the body weight (intraperitoneally, 14 days, daily 10 mg/kg body weight, Figure 1) was “lowered” and the food intake (intraperitoneally, 14 days, daily 10 mg/kg body weight, Figure 2) was “reduction”.
